The text below walks through data of US20220339270A1.

By UniProt entry, the sequences of proteins in these tests, tags left out. Where a name states a change or a piece, a line headed by the entry shows the natural chain unless it says otherwise.
UniProt P10636: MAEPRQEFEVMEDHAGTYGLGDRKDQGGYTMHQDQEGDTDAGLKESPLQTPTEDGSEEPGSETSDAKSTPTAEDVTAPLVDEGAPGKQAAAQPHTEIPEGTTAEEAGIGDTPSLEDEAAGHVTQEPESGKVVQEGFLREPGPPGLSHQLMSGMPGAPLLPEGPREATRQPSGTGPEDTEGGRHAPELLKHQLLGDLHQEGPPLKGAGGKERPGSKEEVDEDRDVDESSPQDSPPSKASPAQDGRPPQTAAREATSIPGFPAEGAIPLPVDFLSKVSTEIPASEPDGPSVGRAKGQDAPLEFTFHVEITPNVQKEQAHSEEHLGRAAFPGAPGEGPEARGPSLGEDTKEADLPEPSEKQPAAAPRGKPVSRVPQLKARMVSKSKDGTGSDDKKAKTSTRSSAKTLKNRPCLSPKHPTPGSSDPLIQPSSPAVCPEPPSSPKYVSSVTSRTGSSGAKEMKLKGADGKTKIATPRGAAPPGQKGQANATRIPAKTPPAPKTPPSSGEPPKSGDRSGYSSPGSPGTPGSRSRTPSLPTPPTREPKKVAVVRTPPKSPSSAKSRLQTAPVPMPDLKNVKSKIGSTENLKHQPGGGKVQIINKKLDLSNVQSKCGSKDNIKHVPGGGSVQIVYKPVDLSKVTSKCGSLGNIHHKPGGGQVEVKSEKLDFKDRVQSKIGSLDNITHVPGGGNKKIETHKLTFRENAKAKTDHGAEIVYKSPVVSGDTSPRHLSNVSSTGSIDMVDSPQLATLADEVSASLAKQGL

No constants are given. Whether binding was seen depends on the method and setting. Some entries that bind do so weakly or less than the wild type. For part of these data: Sequences can lack the tags named with a protein.

Assay [1] addresses extracellular tau in the form of paired helical filaments (ePHF) (UniProt P10636). The experiment in a line: ELISA.
The target of assay [2] is wild-type tau (441 amino acids; tau441; NP_005901.2) (human) (UniProt P10636). The experiment in a line: wild-type tau ELISA, 293 cell supernatant. (In an ELISA, binding on a coated surface is turned into a signal by an enzyme label.)
Assay [3] deals with extracellular tau in the form of paired helical filaments (ePHF) (UniProt P10636). The assay is described as follows: PHF tau ELISA, 293 cell supernatant.
The target is the same in assay [4]. The assay is described as follows: ePHF tau ELISA, Expi293 supernatant.
The target is the same in assay [5]. The assay is described as follows: PHF Tau ELISA.
Assay [6] shares this target. The experiment in a line: PHF-tau ELISA, 293 cell supernatant.
Assay [7] addresses phospho-tau (antigen of the Phospho-tau ELISA of Example 8) (UniProt P10636). The assay is described as follows: Phospho-tau ELISA, ExpiCHO supernatant.

B1: full C10.2 antibody (antibody, V domains shown)
VH: QVQLQQSDAELVKPGASVKISCKASGYTFTDRTIHWVKQRPEQGLEWIGYIYPGDGSTKYNENFKGKATLTADKSSSTAYMQLNSLTSEDSAVYFCARRGAMDYWGQGTSVTVSS
VL: DVQMIQSPSSLSASLGDIVTMTCQASQGTSINLNWFQQKPGKAPKLLIYGASNLEDGVPSRFSGSRYGTDFTLTISSLEDEDMATYFCLQHTYLPFTFGSGTKLEIK
For B1, the binding entry in assay [1] is “binds”.

B2: C10.2 Fab fragments (Fab, V domains shown)
VH: QVQLQQSDAELVKPGASVKISCKASGYTFTDRTIHWVKQRPEQGLEWIGYIYPGDGSTKYNENFKGKATLTADKSSSTAYMQLNSLTSEDSAVYFCARRGAMDYWGQGTSVTVSS
VL: DVQMIQSPSSLSASLGDIVTMTCQASQGTSINLNWFQQKPGKAPKLLIYGASNLEDGVPSRFSGSRYGTDFTLTISSLEDEDMATYFCLQHTYLPFTFGSGTKLEIK
As for B2, in assay [1], the binding entry is recorded as “binds”.

B3: IPN002 scFv-HA expressed from TAU_ITR138 (CAG, HL, (G4S)2) (scFv)
scFv: EVHLVESGGALVKPGGSLKLSCAASGFSFSKYGMSWVRQTPDKRLEWVATISSSGSRTYYPDSVKGQFTISRDNAKNTLYLQMSSLKSEDTAMYYCSISWDGAMDYWGQGTSVTVSSGGGGSGGGGSDVLMTQTPLSLPVSLGDQASISCKSSQSIVHSNGNTYLEWYLQKPGQSPKLLVYKVSNRFSGVPDRFSGSGSGTDFTLKISRVEAEDLGTYYCFQGSLVPWAFGGGTKLEIK
Turning to B3, the binding entry in assay [2] and in assay [3] was “binds” each time.

B4: IPN002 antibody expressed from viral genome construct IPN002LF2AH (TAU_ITR84) (antibody, V domains shown)
VH: EVHLVESGGALVKPGGSLKLSCAASGFSFSKYGMSWVRQTPDKRLEWVATISSSGSRTYYPDSVKGQFTISRDNAKNTLYLQMSSLKSEDTAMYYCSISWDGAMDYWGQGTSVTVSS
VL: DVLMTQTPLSLPVSLGDQASISCKSSQSIVHSNGNTYLEWYLQKPGQSPKLLVYKVSNRFSGVPDRFSGSGSGTDFTLKISRVEAEDLGTYYCFQGSLVPWAFGGGTKLEIK
For the molecule B4, the binding entry in assay [4] is recorded as “binds”.

B5: IPN002 Fab_ext expressed from TAU_ITR130 (CAG, LT2AH) (Fab, V domains shown)
VH: EVHLVESGGALVKPGGSLKLSCAASGFSFSKYGMSWVRQTPDKRLEWVATISSSGSRTYYPDSVKGQFTISRDNAKNTLYLQMSSLKSEDTAMYYCSISWDGAMDYWGQGTSVTVSS
VL: DVLMTQTPLSLPVSLGDQASISCKSSQSIVHSNGNTYLEWYLQKPGQSPKLLVYKVSNRFSGVPDRFSGSGSGTDFTLKISRVEAEDLGTYYCFQGSLVPWAFGGGTKLEIK
For B5, the binding entry in assay [5] and in assay [6] was “binds” each time.

B6: IPN002 Fab_ext expressed from TAU_ITR129 (CBA, hGbin, LT2AH) (Fab, V domains shown)
VH: EVHLVESGGALVKPGGSLKLSCAASGFSFSKYGMSWVRQTPDKRLEWVATISSSGSRTYYPDSVKGQFTISRDNAKNTLYLQMSSLKSEDTAMYYCSISWDGAMDYWGQGTSVTVSS
VL: DVLMTQTPLSLPVSLGDQASISCKSSQSIVHSNGNTYLEWYLQKPGQSPKLLVYKVSNRFSGVPDRFSGSGSGTDFTLKISRVEAEDLGTYYCFQGSLVPWAFGGGTKLEIK
Turning to B6, the binding result in assay [5] and in assay [6] was “binds” each time.

B7: IPN002 Fab_ext expressed from TAU_ITR128 (CAG, HF.T2AL) (Fab, V domains shown)
VH: EVHLVESGGALVKPGGSLKLSCAASGFSFSKYGMSWVRQTPDKRLEWVATISSSGSRTYYPDSVKGQFTISRDNAKNTLYLQMSSLKSEDTAMYYCSISWDGAMDYWGQGTSVTVSS
VL: DVLMTQTPLSLPVSLGDQASISCKSSQSIVHSNGNTYLEWYLQKPGQSPKLLVYKVSNRFSGVPDRFSGSGSGTDFTLKISRVEAEDLGTYYCFQGSLVPWAFGGGTKLEIK
As to B7, the binding result in assay [5] and in assay [6] was “binds” throughout.

B8: IPN002 F(ab')2_hIgG3_3hinge expressed from TAU_ITR122 (CBA, hGbin, HF.T2AL) (F(ab')2)
VH: EVHLVESGGALVKPGGSLKLSCAASGFSFSKYGMSWVRQTPDKRLEWVATISSSGSRTYYPDSVKGQFTISRDNAKNTLYLQMSSLKSEDTAMYYCSISWDGAMDYWGQGTSVTVSS
VL: DVLMTQTPLSLPVSLGDQASISCKSSQSIVHSNGNTYLEWYLQKPGQSPKLLVYKVSNRFSGVPDRFSGSGSGTDFTLKISRVEAEDLGTYYCFQGSLVPWAFGGGTKLEIK
As for B8, the binding entry in assay [6] is “binds”.

B9: IPN002 Fab expressed from TAU_ITR127 (CAG, HF.T2AL) (Fab, V domains shown)
VH: EVHLVESGGALVKPGGSLKLSCAASGFSFSKYGMSWVRQTPDKRLEWVATISSSGSRTYYPDSVKGQFTISRDNAKNTLYLQMSSLKSEDTAMYYCSISWDGAMDYWGQGTSVTVSS
VL: DVLMTQTPLSLPVSLGDQASISCKSSQSIVHSNGNTYLEWYLQKPGQSPKLLVYKVSNRFSGVPDRFSGSGSGTDFTLKISRVEAEDLGTYYCFQGSLVPWAFGGGTKLEIK
On to B9, for which the binding result in assay [5] and in assay [6] was “binds” in each case.

B10: IPN002 antibody expressed from CB6-IPN002-HF.T2AL (TAU_ITR4) (antibody, V domains shown)
VH: EVHLVESGGALVKPGGSLKLSCAASGFSFSKYGMSWVRQTPDKRLEWVATISSSGSRTYYPDSVKGQFTISRDNAKNTLYLQMSSLKSEDTAMYYCSISWDGAMDYWGQGTSVTVSS
VL: DVLMTQTPLSLPVSLGDQASISCKSSQSIVHSNGNTYLEWYLQKPGQSPKLLVYKVSNRFSGVPDRFSGSGSGTDFTLKISRVEAEDLGTYYCFQGSLVPWAFGGGTKLEIK
Turning to B10, the binding result in assay [7] is “binds”.

B11: IPN002 antibody expressed from CB6-IPN002-LF2AH (TAU_ITR11) (antibody, V domains shown)
VH: EVHLVESGGALVKPGGSLKLSCAASGFSFSKYGMSWVRQTPDKRLEWVATISSSGSRTYYPDSVKGQFTISRDNAKNTLYLQMSSLKSEDTAMYYCSISWDGAMDYWGQGTSVTVSS
VL: DVLMTQTPLSLPVSLGDQASISCKSSQSIVHSNGNTYLEWYLQKPGQSPKLLVYKVSNRFSGVPDRFSGSGSGTDFTLKISRVEAEDLGTYYCFQGSLVPWAFGGGTKLEIK
As for B11, the binding result in assay [7] was “binds”.

B12: IPN002 Fab_ext expressed from TAU_ITR124 (CBA, hGbin, HF.T2AL) (Fab, V domains shown)
VH: EVHLVESGGALVKPGGSLKLSCAASGFSFSKYGMSWVRQTPDKRLEWVATISSSGSRTYYPDSVKGQFTISRDNAKNTLYLQMSSLKSEDTAMYYCSISWDGAMDYWGQGTSVTVSS
VL: DVLMTQTPLSLPVSLGDQASISCKSSQSIVHSNGNTYLEWYLQKPGQSPKLLVYKVSNRFSGVPDRFSGSGSGTDFTLKISRVEAEDLGTYYCFQGSLVPWAFGGGTKLEIK
With B12, the binding entry in assay [5] and in assay [6] was “binds” throughout.

B13: IPN002 antibody expressed from CB6-IPN002-LT2AH (TAU_ITR87) (antibody, V domains shown)
VH: EVHLVESGGALVKPGGSLKLSCAASGFSFSKYGMSWVRQTPDKRLEWVATISSSGSRTYYPDSVKGQFTISRDNAKNTLYLQMSSLKSEDTAMYYCSISWDGAMDYWGQGTSVTVSS
VL: DVLMTQTPLSLPVSLGDQASISCKSSQSIVHSNGNTYLEWYLQKPGQSPKLLVYKVSNRFSGVPDRFSGSGSGTDFTLKISRVEAEDLGTYYCFQGSLVPWAFGGGTKLEIK
As to B13, the binding result in assay [7] is “binds”.

B14: IPN002 antibody expressed from CB6-IPN002-HF.F2AL (TAU_ITR3) (antibody, V domains shown)
VH: EVHLVESGGALVKPGGSLKLSCAASGFSFSKYGMSWVRQTPDKRLEWVATISSSGSRTYYPDSVKGQFTISRDNAKNTLYLQMSSLKSEDTAMYYCSISWDGAMDYWGQGTSVTVSS
VL: DVLMTQTPLSLPVSLGDQASISCKSSQSIVHSNGNTYLEWYLQKPGQSPKLLVYKVSNRFSGVPDRFSGSGSGTDFTLKISRVEAEDLGTYYCFQGSLVPWAFGGGTKLEIK
As to B14, the binding entry in assay [7] is recorded as “binds”.

B15: IPN002 antibody expressed from CAG-IPN002-LT2AH (TAU_ITR10) (antibody, V domains shown)
VH: EVHLVESGGALVKPGGSLKLSCAASGFSFSKYGMSWVRQTPDKRLEWVATISSSGSRTYYPDSVKGQFTISRDNAKNTLYLQMSSLKSEDTAMYYCSISWDGAMDYWGQGTSVTVSS
VL: DVLMTQTPLSLPVSLGDQASISCKSSQSIVHSNGNTYLEWYLQKPGQSPKLLVYKVSNRFSGVPDRFSGSGSGTDFTLKISRVEAEDLGTYYCFQGSLVPWAFGGGTKLEIK
As to B15, in assay [7], the binding entry is “binds”.

B16: IPN002 Fab expressed from TAU_ITR123 (CBA, hGbin, HF.T2AL) (Fab, V domains shown)
VH: EVHLVESGGALVKPGGSLKLSCAASGFSFSKYGMSWVRQTPDKRLEWVATISSSGSRTYYPDSVKGQFTISRDNAKNTLYLQMSSLKSEDTAMYYCSISWDGAMDYWGQGTSVTVSS
VL: DVLMTQTPLSLPVSLGDQASISCKSSQSIVHSNGNTYLEWYLQKPGQSPKLLVYKVSNRFSGVPDRFSGSGSGTDFTLKISRVEAEDLGTYYCFQGSLVPWAFGGGTKLEIK
As to B16, the binding result in assay [5] and in assay [6] was “binds” throughout.

B17: IPN002 antibody expressed from viral genome construct IPN002HF.F2AL (TAU_ITR77) (antibody, V domains shown)
VH: EVHLVESGGALVKPGGSLKLSCAASGFSFSKYGMSWVRQTPDKRLEWVATISSSGSRTYYPDSVKGQFTISRDNAKNTLYLQMSSLKSEDTAMYYCSISWDGAMDYWGQGTSVTVSS
VL: DVLMTQTPLSLPVSLGDQASISCKSSQSIVHSNGNTYLEWYLQKPGQSPKLLVYKVSNRFSGVPDRFSGSGSGTDFTLKISRVEAEDLGTYYCFQGSLVPWAFGGGTKLEIK
With B17, the binding result in assay [4] was “binds”.

B18: IPN002 F(ab')2_hIgG3_2hinge expressed from TAU_ITR121 (CBA, hGbin, HF.T2AL) (F(ab')2)
VH: EVHLVESGGALVKPGGSLKLSCAASGFSFSKYGMSWVRQTPDKRLEWVATISSSGSRTYYPDSVKGQFTISRDNAKNTLYLQMSSLKSEDTAMYYCSISWDGAMDYWGQGTSVTVSS
VL: DVLMTQTPLSLPVSLGDQASISCKSSQSIVHSNGNTYLEWYLQKPGQSPKLLVYKVSNRFSGVPDRFSGSGSGTDFTLKISRVEAEDLGTYYCFQGSLVPWAFGGGTKLEIK
On to B18, for which the binding result in assay [2] and in assay [6] was “binds” in each case.

B19: IPN002 antibody expressed from CAG-IPN002-LF2AH (TAU_ITR9) (antibody, V domains shown)
VH: EVHLVESGGALVKPGGSLKLSCAASGFSFSKYGMSWVRQTPDKRLEWVATISSSGSRTYYPDSVKGQFTISRDNAKNTLYLQMSSLKSEDTAMYYCSISWDGAMDYWGQGTSVTVSS
VL: DVLMTQTPLSLPVSLGDQASISCKSSQSIVHSNGNTYLEWYLQKPGQSPKLLVYKVSNRFSGVPDRFSGSGSGTDFTLKISRVEAEDLGTYYCFQGSLVPWAFGGGTKLEIK
For the molecule B19, the binding entry in assay [7] is “binds”.
